Among the data in US20090317476A1, “COMBINATION OF DEHYDROEPIANDROSTERONE OR DEHYDROEPIANDROSTERONE-SULFATE WITH A LEUKOTRIENE RECEPTOR ANTAGONIST FOR TREATMENT OF ASTHMA OR CHRONIC OBSTRUCTIVE PULMONARY DISEASE” (priority 2003, published 2009) are Fine particle fraction values, retold here.

This series is described as follows: Aerosolization with single-dose Acu-Breathe device, fine particle fraction. Conditions: IDL data; 30 L/min; result set to zero.

On to `C[C@]12CC[C@H](OS(=O)(=O)[O-])CC1=CC[C@@H]1[C@@H]2CC[C@]2(C)C(=O)CC[C@@H]12.[Na+]` [Anhydrous DHEA-S], for which the Fine particle fraction entry was “no detectable mass entered the impactor”.
